Assay results taken from US20050227982A1, “Antileishmanial dinitroaniline sulfanomides with activity against parasite tubulin” (priority 2002, published 2005).

Each molecule was assayed on leishmanial tubulin. Conditions: leishmanial vs rat brain tubulin Kd ratio.
Assay type: binding, Leishmania

| SMILES | Selectivity Index |
| --- | --- |
| CCCCN(CCCC)c1c([N+](=O)[O-])cc(S(N)(=O)=O)cc1[N+](=O)[O-] [Compound 15, 4(dibutylamino)-3,5-dinitrobenzenesulfonamide] | 0.9 |
| CCCCCN(CCCCC)c1c([N+](=O)[O-])cc(S(N)(=O)=O)cc1[N+](=O)[O-] [Compound 16] | 4.5 |
| CCCCCCN(CCCCCC)c1c([N+](=O)[O-])cc(S(N)(=O)=O)cc1[N+](=O)[O-] [Compound 17] | 4.9 |
| CCCN(CCC)c1c([N+](=O)[O-])cc(S(=O)(=O)Nc2ccccc2)cc1[N+](=O)[O-] [Compound 20, N1-Phenyl-3,5-dinitro-N4,N4-di-n-propylsulfonilamide] | 11.4 |
| CCCNS(=O)(=O)c1cc([N+](=O)[O-])c(N(CCC)CCC)c([N+](=O)[O-])c1 [Compound 21, N1-Propyl-3,5-dinitro-N4,N4-di-n-propylsulfonilamide] | 26.6 |
